## Results of single-concentration screens

The chains behind the UniProt entries cited, without tags or fusion partners.
UniProt P9WFT3, whole entry: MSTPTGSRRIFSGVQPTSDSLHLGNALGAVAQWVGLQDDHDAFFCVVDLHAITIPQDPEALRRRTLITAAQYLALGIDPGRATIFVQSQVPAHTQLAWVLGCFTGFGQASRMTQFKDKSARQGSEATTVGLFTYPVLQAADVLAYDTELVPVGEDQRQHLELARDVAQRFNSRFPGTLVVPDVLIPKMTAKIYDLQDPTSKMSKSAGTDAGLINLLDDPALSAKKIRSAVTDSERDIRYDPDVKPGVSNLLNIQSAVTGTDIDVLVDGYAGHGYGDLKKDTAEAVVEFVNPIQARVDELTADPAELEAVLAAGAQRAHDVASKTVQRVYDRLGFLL
UniProt P9WPC5, whole entry: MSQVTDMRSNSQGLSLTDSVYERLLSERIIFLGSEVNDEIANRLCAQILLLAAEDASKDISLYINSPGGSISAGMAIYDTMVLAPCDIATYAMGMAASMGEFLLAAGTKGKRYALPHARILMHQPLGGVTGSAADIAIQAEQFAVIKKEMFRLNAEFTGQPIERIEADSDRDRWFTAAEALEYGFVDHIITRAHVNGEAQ
UniProt P9WPC3, whole entry partner: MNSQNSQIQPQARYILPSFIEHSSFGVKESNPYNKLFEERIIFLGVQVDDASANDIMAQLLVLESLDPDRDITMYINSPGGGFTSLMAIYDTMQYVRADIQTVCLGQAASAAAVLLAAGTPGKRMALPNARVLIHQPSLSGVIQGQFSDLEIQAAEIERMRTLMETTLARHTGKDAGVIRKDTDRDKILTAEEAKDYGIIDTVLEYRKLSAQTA

Source: ChEMBL document CHEMBL3988442, “University of Dundee, Small-Polar-MMV Screening Library” (2021).

The filed quantity is “Percent Effect” (%).
The controls that fix the scale are not given in the record; negative values are as filed.
Compounds were drawn at random from those tested, without regard to their results.

A: 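Enzyme assay of tryptophanyl-tRNA synthetase; the read-out is not stated. Target: Tryptophan-tRNA ligase, Mycobacterium tuberculosis (UniProt P9WFT3). Tested at 10 µM. Direction is not recorded; retested compounds ran higher, which suggests that high means inhibition. Of about 65,000 compounds tested this way, about 64 (0.098%) reached 50% or more in at least one test.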
B: 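ClpP1P2, Mycobacterium tuberculosis (UniProt P9WPC5 and UniProt P9WPC3). Protease assay of ClpP1P2, read by the AMC dye that it sets free. Compounds at 50 µM. Higher reads as stronger inhibition, judged from the few compounds that gave an IC50. Most other retested compounds had strongly negative values. Of about 69,000 compounds tested this way, about 10 (0.015%) reached 50% or more in at least one test.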

SMILES: COc1cccc(CC(=O)NC2CCCc3cn[nH]c32)c1 (configuration not stated)
A: 9.748%
B: -15.8%

SMILES: Cc1cncc(C(=O)N2CC[C@@H]3[C@H]2CCC(=O)N3CCN(C)C)c1
A: 1.841%
B: 7.914%

SMILES: O=C(NCCCF)N1CCC(n2ccc(C(F)(F)F)n2)CC1
A: 4.627%
B: -2.802%

SMILES: Cc1nnnn1-c1ccc(CC(=O)N2CCOCC(O)C2)cc1 (configuration not stated)
A: 0.602%
B: -14.27%

SMILES: O=C(NC[C@H]1OC[C@@H](NC2CCOCC2)[C@@H]1O)C1CCCC1
A: -2.049%
B: 3.418%

SMILES: O=C(C1CCCC1)N1CCC(Nc2ccncn2)CC1
A: -5.098%
B: 0.8436%

SMILES: CN(C)C(=O)N1CCCC(C(=O)N(C)Cc2cnc(N)nc2)C1 (configuration not stated)
A: -2.217%
B: -2.851%

SMILES: CC(C(=O)N(Cc1ccc(C#N)cc1)CC(F)(F)F)S(C)(=O)=O (configuration not stated)
A: 1.56%
B: 0.05818%

SMILES: CC(C)CO[C@@H]1CC[C@H]2[C@H]1OCCN2S(=O)(=O)C1CC1
A: 3.635%
B: -6.329%

SMILES: COCCN(C)C[C@@H]1CN(C(=O)C(C)(C)c2ccccc2)C[C@@H]1CO
A: -1.321%
B: 5.237%

SMILES: O=C(CCC1CCN(C(=O)c2csnn2)CC1)NCc1cccc(Cl)c1
A: -6.245%
B: -5.361%

SMILES: CNC(=O)CS(=O)(=O)C1CCN(S(=O)(=O)c2ccccc2Cl)CC1
A: -0.7819%
B: -9.816%

SMILES: Nc1ccc(-c2cnc(C3CCCN3)cn2)cn1 (configuration not stated)
A: -3.041%
B: 10.55%

SMILES: COc1cccc(N2CC3(CCN(c4ccncn4)C3)CC2=O)c1 (configuration not stated)
A: 11.24%
B: -0.1577%

SMILES: CCCNC(=O)CN1CCN(Cc2csc(C(C)(C)C)n2)CC1
A: -4.957%
B: -4.477%

SMILES: N#Cc1cc(S(N)(=O)=O)ccc1NC1CCc2c(F)cccc21 (configuration not stated)
A: 2.178%
B: 15.05%

SMILES: Cc1ccc(N2CCCC(NC(=O)CCc3ccccn3)C2=O)cc1 (configuration not stated)
A: -2.621%
B: 2.852%

SMILES: Cn1ccnc1CN1CCC2(CC1)COCCN(S(C)(=O)=O)C2
B: -5.557%

SMILES: O=C(NCc1ccccc1CN1CCCCCC1)Nc1nncs1
A: -1.141%
B: -2.156%

SMILES: CC(C)(C)c1cc(=O)[nH]c(C2(N)CCCCC2)n1
A: 5.674%
B: -12.55%

SMILES: CC(=O)CCCC(=O)N(Cc1ccsc1)CC(C)C
A: -4.935%
B: -13.11%

SMILES: CC(C)N1CC[C@H]2[C@H](C[C@@H](Cn3cncn3)N2c2nccs2)C1
B: 9.713%

SMILES: COc1c(C(=O)NC(C)Cc2ccccc2Cl)c(C)nn1C (configuration not stated)
A: 4.762%
B: -6.199%

SMILES: COC(=O)c1ccc(NC(C)c2ccc3c(c2)NC(=O)CO3)nn1 (configuration not stated)
A: 2.065%
B: 3.127%

SMILES: Cc1cnccc1N1CCCN(Cc2ccc(-c3cc[nH]n3)o2)CC1
A: -3.65%
B: 12.36%

SMILES: Cc1ccc(CN2CC[C@@H](NC(=O)c3cccnc3)[C@H](O)C2)s1
A: 5.474%
B: -28.43%

SMILES: NC(=O)C1CCN(CCc2ccc(NCc3cccnc3)cc2)CC1
A: 6.373%
B: -3.776%

SMILES: Cc1cccc(CN2CCCn3c(nnc3Cn3cccn3)C2)n1
A: -1.926%
B: -5.105%

SMILES: Cc1csc(N2CCN(C3CCc4ccccc4C3)CC2)n1 (configuration not stated)
A: 8.338%
B: 20.71%

SMILES: CCN(CC)C(CNCc1ccc(O)cc1)c1ccco1 (configuration not stated)
A: -3.306%
B: -6.546%

SMILES: CN(CCc1ccc(F)cc1)Cc1nc2c(cnn2C)c(=O)[nH]1
A: 3.021%
B: 5.504%

SMILES: CCn1cc(CN(C)S(=O)(=O)c2ccc(NC(C)=O)cc2)cn1
A: 2.01%
B: 13.25%

SMILES: Cc1nc2cc(F)cc(C(=O)N3CCN(CC(C)O)CC3)c2nc1C (configuration not stated)
A: 4.701%
B: 2.582%

SMILES: CSCC[C@H](NC(=O)Cn1ccc2c(Br)cccc21)C(=O)O
A: 5.672%
B: -3.658%

SMILES: c1cncc(COCc2nnc3n2CCN(Cc2cccs2)C3)c1
A: -0.4882%
B: 3.336%

SMILES: Cc1[nH]c2ccccc2c1-c1ccnc(NCCN2CCOCC2)n1
A: -4.139%
B: -0.151%

SMILES: NC[C@H]1CC[C@H](C(NC(=O)c2ccccn2)c2ccccn2)CC1 (some centres not stated)
A: -3.083%
B: 3.979%

SMILES: CC(=O)N(C)C(c1cccc(F)c1)c1ccccn1 (configuration not stated)
A: 70.34%
B: 16.64%

SMILES: Cc1ccc(CN2CCc3nnc(CN4CCCC4=O)n3CC2)o1
A: -3.488%
B: 9.918%

SMILES: O=S(=O)(C1CC1)N1CCc2c(CN3CCOCC3)cncc2C1
B: 9.847%

SMILES: COc1nn(C)cc1C(=O)NCC1(O)CCc2ccccc2C1 (configuration not stated)
A: -1.188%
B: -6.556%

SMILES: CN(C)C(=O)N1CCN(Cc2nc3ccccc3[nH]2)[C@H]2CS(=O)(=O)C[C@H]21
A: 2.634%
B: 12.51%

The first 2 entries again:

* COc1cccc(CC(=O)NC2CCCc3cn[nH]c32)c1 (configuration not stated) : A: 9.748%; B: -15.8%
* Cc1cncc(C(=O)N2CC[C@@H]3[C@H]2CCC(=O)N3CCN(C)C)c1 : A: 1.841%; B: 7.914%